From patent US12624112 (MABWELL SHANGHAI BIOSCIENCE, dated 2026)
Positions count from the first letter of the chain named. Results are given in words; binding and its absence hold for the method and conditions named. Some entries that bind do so weakly or less than the wild type.

Assays:
[1] = target: Cyno ST2-fc (cyno; human); assay: ELISA: cyno ST2-fc coated at 1 µg/mL, antibody titrated 3-fold from 1000 ng/mL, goat anti-mouse secondary antibody, OD450 [7-2]
[2] = target: Cyno ST2-fc (cyno; human); assay: ELISA: cyno ST2-fc coated at 1 µg/mL, antibody titrated 3-fold from 1000 ng/mL, goat anti-mouse secondary antibody, OD450 [7-1]
[3] = target: Cyno ST2-fc (cyno; human); assay: ELISA, coated cyno ST2-fc

B1: Control antibody CNTO7160 (antibody, human IgG4 S228P, kappa, V domains shown)
VH: EVQLLESGGGLVQPGGSLRLSCAASGFTFSIYDMIWVRQAPGKGLEWVSSIRGEGGGTYYADSVKGRFTISRDNSKNTLYLQMNSLRAEDTAVYYCARDPWSTEGSFFVLDYWGQGTLVTVSS
VL: EIVLTQSPATLSLSPGERATLSCRASQSVDDDLAWYQQKPGQAPRLLIYDASNRATGIPARFSGSGSGTDFTLTISSLEPEDFAVYYCQQYITAPLTFGQGTKVEIKR
Q: B1 was tested. Which binding [1] did it give?
A: Its binding is “binds”.

Q: What about the binding [2] of the same binder?
A: Its binding is “binds”.

B2: 5888-116H1+L1 (antibody, V domains shown)
VH: QVQLQQSGAELVRPGASVTLSCKASGYTFTDSEMYWVRLTPVHGLEWIGAIDPETGDTAFNQKFKGKATLTADKSSSTAYMELRSLTSEDSVVYYCTRAFDNDNDDGFAYWGQGTLVTVSA
VL: QIVMTQSPAIMSASPGEKVTMTCSASSSVNYMHWYQQKSGTSPKRWIYDTSKLASGVPARFSGSGSGTSYSLTISSMEAEDAATYYCQQWSSNPLTFGAGTKLELK
notes: murine antibody
Q: B2 was tested. Which binding [1] did it give?
A: Its binding is “binds”.

Q: What about the binding [3] of the same binder?
A: The binding was “binds”.

B3: 5888-153H1+L2 (antibody, V domains shown)
VH: QVQLQQSGAELVRPGASVTLSCKASGYTFTDYELHWVKQTPVHGLEWIGTIDPETGDTVYNQKFKAKAILTADKSSSTAYMEFRSLTSEDSAVCYCTRAFYNDYDDGFAYWGQGTLVTVSA
VL: B2 VL with S7T, A25V, N30S, S75N, S76N, S91N, N93S
notes: murine antibody
Q: Which binding [1] does the source give for B3 here?
A: The binding was “binds”.

Q: What about the binding [3] of the same binder?
A: Its binding is “binds”.

B4: 5888-357H+L (antibody, V domains shown)
VH: QVQLQQSVTELVRPGASVTLSCKASGYRFTDSEMHWVKQTPVHGLEWIGTIDPETGGTVYNQKFKGKAKLTADRSSSTVSMELRSLTSEDSAVYYCTRAFYNDFDDGFAYWGQGTLVTVSA
VL: B2 VL with M21L, S27T, N30S
notes: murine antibody
Q: B4 was tested. Which binding [1] did it give?
A: The binding was “binds”.

Q: What about the binding [3] of the same binder?
A: Its binding is “binds”.

B5: 5888-379H1+L2 (antibody, V domains shown)
VH: QIQLAQSGPELKKPGETVKISCKASGYTFINYGMNWVKQAPGKDLKWMGWINTYIGEPTYGDNFKGRFAFSLETSASTVYLQINNLKNEDTATYFCAREGDGFAYWGQGTLVTVSA
VL: DIVMTQSPPSLSVSVGEKVTMSCKSSQSLLYSGNQNNYLAWYQQKPGQPPKLLIYGASTRESGVPDRFTGSGSGTDFTLTISSVQAEDLAVYYCQNDHSYPYTFGGGTKLEIK
notes: murine antibody
Q: For B5, which binding [1] is on record?
A: Its binding is “binds”.

Q: What about the binding [3] of the same binder?
A: The binding was “binds”.

B6: 5886-156H+L (antibody, V domains shown)
VH: DVQLQQSGPGLVKPSQSLSLTCTVTGYSITSDYAWNWIRQFPGNKLEWMGYIDYSGSTTYNPSLKSRFSITRDTSKNQFFLQLNSVTTEDTATYYCASTVIDSMDYWGQGTSVTVSS
VL: DIVLTQSPASLAVSLGQRATISCRASKSVSTSGHSYMHWYQQKPGQPPKLLIYLASNLESGVPARFSGSGSGTDFTLNINPMEEEDAATYYCQHSREFPFTFGSGTKLEIK
notes: murine antibody
Q: For B6, which binding [2] is on record?
A: The binding was “binds”.

Q: What about the binding [3] of the same binder?
A: The binding was “binds”.

B7: 5887-41H+L (antibody, V domains shown)
VH: B6 VH with N36D, D53R, S57D, T59Y, F68I, S98T, V100M, I101M, S103T
VL: B6 VL with A12T, H34N, N80H, M82V, F100L, S104A, I110L
notes: murine antibody
Q: What does the source list for B7?
A: binding [2]: binds; binding [3]: binds

B8: 5887-537H3+L1 (antibody, V domains shown)
VH: QVTLKESGPGILQPSQTLSLTCSFSGFSLSTSGMGVGWIRQPSGKGLEWLAHIWWDDVKQYNPALKSRLTISKDTSSSQVFLKSASVDTADTATYYCARIGGDYDYFDFWGQGTTLTVSS
VL: DIVLTQSPASLAVSLGQRATISCRASESVEYSGTSLMQWYQQKPGQPPKLLIYVASNVESGVPARFSGSGSGTDFSLNIHPVEEDDIAMYFCQQSRKVPWTFGGGTKLEIK
notes: murine antibody; also called 5887-537H3H+L1
Q: For B8, which binding [2] is on record?
A: Its binding is “binds”.

Q: And the binding [3]?
A: The binding was “binds”.
